Reference: PubChem BioAssay AID2685 (National Center for Advancing Translational Sciences (NCATS), 2010)
The other results are listed elsewhere or left out. The main result of the screen is listed elsewhere. These columns were measured beside it and carry no call. Most of these compounds were active or inconclusive in the main read-out, so they are no random draw. The note in brackets gives the kind of curve behind each potency; many fits are weak.

Test: qHTS Assay for Lipid Storage Modulators in Drosophila S3 Cells;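 on cell number change: cells counted by Cell Tracker Red CMTPX staining in the red channel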
Details: BODIPY lipid droplet fluorescence, 18-24 h; for cell number change: measured here: cell count max response, cells fed with added oleic acid
Procedure, shortened: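 Laser-scanning cytometry quantifies lipid droplet accumulation (500–530 nm total intensity; droplet/cell object ratio) in oleic acid-fed (400 uM added) Drosophila S3 cells treated with a concentration series. 20 uM Triacsin C defined 100% inhibition.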

[1] = measured here: lipid fluorescence (Fed channel) AC50, cells fed with added oleic acid
[2] = measured here: cell number channel AC50, cells fed with added oleic acid

Compound	cell number change	AC50 [1]	AC50 [2]
CCCCn1c(S(=O)(=O)O)nc2ccccc21	-0.52%	29.1 µM [falling, single point]	
COc1cc(F)c(C2=CC(=O)CC(C)(C)C2)cc1F	-13.7%	0.116 µM [falling, full curve, poor fit]	
O=C(CSc1nc(-c2cccs2)cc(C(F)(F)F)n1)Nc1cc(OCC(F)(F)C(F)F)cc([N+](=O)[O-])c1	-31.9%	29.1 µM [falling, single point]	29.1 µM [falling, single point]
CCOC(=O)CSc1nc2ccccc2c(=O)n1CC	-3.86%		
COc1ccc(CN2CCN(Cc3ccc(Br)cc3)CC2)c(OC)c1OC	73%		2.31 µM [falling, single point]
CCN(CC)S(=O)(=O)c1ccc(NC(=O)CO/N=C(\N)c2ccccc2)cc1			3.66 µM [rising, single point]
COCCCn1c(SCC(=O)Nc2nnc(C)s2)nnc1-c1ccoc1C	17.4%	1.3 µM [rising, single point]	
CCOc1cc(/C=N/NC(=O)c2cc3c(ccc4ccccc43)o2)ccc1O	-42.2%		7.31 µM [falling, partial curve, poor fit]
CCOC(=O)c1sc2nccc(N(C)C)c2c1N=CNOCc1ccccc1	22.2%	7.31 µM [rising, partial curve]	
Cc1ccc(C)c(-n2nnnc2SCC(=O)Nc2cccc(-c3nnc4n3CCCCC4)c2)c1	1.05%	3.26 µM [rising, single point]	
COc1cc([N+](=O)[O-])ccc1NC(=O)NNC(=O)c1sccc1C	-25.2%		
NC(=O)c1c(NC(=O)CCCn2cnc([N+](=O)[O-])n2)sc2c1CCCC2	-10.2%		2.59 µM [rising, partial curve]
CC(C)CC(C(=O)NC(C)(C)C)N(Cc1ccccc1Cl)C(=O)c1snc(C(N)=O)c1N (stereo unspecified)	-64.3%		14.6 µM [falling, partial curve]
O=C(COC(=O)c1ccccc1C(=O)N1CCN(c2ccc(F)cc2)CC1)NCc1ccccc1	61.9%	6.51 µM [rising, single point]	7.31 µM [rising, partial curve]
COCCn1c(SCC(=O)Nc2cc(C)cc(C)c2)nc2ccccc2c1=O		3.26 µM [falling, partial curve]	
CC1(C(=O)NC2CCCCCCC2)CCC(=O)N1CCN1CCOCC1 (stereo unspecified)	-25.9%	0.731 µM [falling, full curve]	0.651 µM [falling, full curve, poor fit]
COCc1c(C(N)=O)nnn1-c1nonc1N	-4.89%	0.366 µM [falling, full curve, poor fit]	
COc1cccc(CC(=O)OCC(=O)Nc2c(C)nn(-c3ccccc3)c2C)c1	5.62%		
Cc1ccsc1/C=N/NC(=O)CN1CCN(Cc2ccccc2)CC1	11.6%	0.231 µM [falling, full curve, poor fit]	
CCOC(=O)C1CCCN(S(=O)(=O)c2ccc3c(c2)C(C)(C)C(=O)N3C)C1 (stereo unspecified)	16.5%	29.1 µM [falling, single point]	
COc1ccc(N(C(=O)Cn2nnc(-c3ccc(F)cc3)n2)C(C)C(=O)NC2CCCC2)cc1 (stereo unspecified)		1.12 µM [falling, partial curve]	
C/C(=N\NC(=O)c1cccnc1)c1ccc(OC2OCCOC2Oc2ccc(/C(C)=N/NC(=O)c3cccnc3)cc2)cc1 (stereo unspecified)		6.51 µM [falling, partial curve, poor fit]	0.461 µM [rising, single point]
c1ccc(-c2ccc3c(c2)c2c4n3CCN=C4CCC2)cc1	-2.65%		6.51 µM [falling, single point]
NS(=O)(=O)c1ccc(CCNC(=O)c2ccc(NS(=O)(=O)c3ccc4[nH]c(=O)[nH]c4c3)cc2)cc1	-13%	4.11 µM [falling, full curve, poor fit]	
CCC(Oc1ccccc1)C(=O)NC1CCCCCC1 (stereo unspecified)	-1.66%	2.91 µM [rising, partial curve]	
Cn1nnnc1SC1CC(=O)N(c2ccccc2)C1=O (stereo unspecified)	-30.2%	23.1 µM [falling, single point]	29.1 µM [falling, single point]
CC(=O)c1ccc(Nc2cnn(C34CC5CC(CC(CC(=O)O)(C5)C3)C4)c(=O)c2Cl)cc1	16.7%	6.51 µM [falling, single point]	6.51 µM [falling, single point]
Cn1c(-c2c(N)n(-c3ccccc3)c3nc4ccccc4nc23)nc2ccccc21	-33.5%	20.6 µM [falling, single point]	7.31 µM [falling, partial curve]

Compound	cell number change	AC50 [1]	AC50 [2]
Cc1cc(C(=O)NCc2ccccc2F)c2ccccc2n1	39.1%		
Cc1ccc(-c2cc(-c3ccccc3)c3c(N)c(S(C)(=O)=O)sc3n2)cc1	145%	2.31 µM [rising, partial curve]	9.2 µM [rising, partial curve]
O=C(O)c1cccc(S(=O)(=O)N2CCC(Cc3ccccc3)CC2)c1	31.8%	29.1 µM [rising, single point]	36.6 µM [rising, single point]
CCn1c(SCC(=O)N2CCN(C)CC2)nc2c1c(=O)n(C)c(=O)n2C	23.5%	6.51 µM [falling, single point]	
CC1CCN(S(=O)(=O)c2ccc([N+](=O)[O-])cc2)CC1	1.09%		6.51 µM [rising, single point]
N/C(=N\OC(=O)CCN1C(=O)c2ccccc2C1=O)c1ccccn1	143%		14.6 µM [rising, partial curve]
CC(=O)c1c(C)[nH]c(C(=O)CN2C(=O)NC(C)(c3ccc(C)cc3)C2=O)c1C (stereo unspecified)	22.8%		1.16 µM [rising, full curve, poor fit]
CN(C)c1ccc(NC(=O)C2C3C=CC(C3)C2C(=O)O)cc1 (stereo unspecified)	-30.6%		29.1 µM [falling, single point]
O=C(N/N=C/c1ccccn1)c1ccc(NC(=O)c2cccc([N+](=O)[O-])c2)cc1	-53.2%		29.1 µM [falling, single point]
COc1ccc(C(=O)NC2CC3CCCC(C2)N3Cc2ccccc2)cc1 (stereo unspecified)	-18.1%		
CN1CCN(Cc2cn[nH]c2-c2ccc(F)cc2F)[C@@H](c2ccccc2)C1	-4.01%	0.517 µM [falling, full curve, poor fit]	
Cc1ccccc1OC(=O)c1cccnc1	47.7%		
COc1ccccc1CNC(=O)CS(=O)Cc1nc(-c2ccccc2C)oc1C (stereo unspecified)		1.64 µM [rising, partial curve]	0.0291 µM [rising, full curve, poor fit]
O=C1NN(c2ccccc2)C(=O)/C1=C/c1ccc(-c2ccc(Cl)c(C(=O)O)c2)o1	-41.2%	18.4 µM [falling, single point]	6.51 µM [falling, full curve]
CC(C)(C)NC(=O)NC(=O)CN1CCN(c2ncc(C(F)(F)F)cc2Cl)CC1		0.731 µM [rising, partial curve, poor fit]	0.461 µM [rising, full curve]
Cc1cc(=O)oc2cc(OC(=O)c3ccccc3)ccc12	-0.841%	0.731 µM [falling, single point]	
CN(CC(=O)Nc1cccc(F)c1)C(=O)c1ccc(S(=O)(=O)N2CCCC2)cc1	-45.1%	32.6 µM [falling, single point]	18.4 µM [falling, single point]
CCCCNC(=O)CCc1c(C)nc2nc(-c3cc(OC)cc(OC)c3)nn2c1C		3.26 µM [rising, partial curve]	3.26 µM [rising, partial curve]
Nc1nc(Nc2ccccc2)sc1C(=O)c1ccccc1	16.4%	29.1 µM [rising, single point]	
Cc1ccc(NC(=S)NC(NC(=O)N(C)C)C(Cl)(Cl)Cl)cc1 (stereo unspecified)	-2.47%		6.51 µM [rising, partial curve, poor fit]
c1ccc(CN2CCC(Nc3nc(-c4cccs4)nc4ccccc34)CC2)cc1	-57.5%	25.9 µM [falling, single point]	29.1 µM [falling, single point]
CCOc1ccc(N=c2oc3cc(O)ccc3cc2C(=O)NCC2CCCO2)cc1 (stereo unspecified)	16.4%		
C/C(=N\NC(=O)c1nn(C)c(C)c1Br)c1cccc(NC(=O)c2ccoc2C)c1	39.5%	1.84 µM [rising, full curve, poor fit]	29.1 µM [rising, single point]
CCOC(=O)CCc1c(C)c2ccc(OCC)c(C)c2oc1=O	-39%	6.51 µM [falling, full curve]	3.66 µM [falling, full curve]
O=C(NCc1ccccn1)c1ccc2c(=O)n3nc(Nc4ccccc4)sc3nc2c1		2.31 µM [falling, partial curve]	
CCOC(=O)C1/C(=N\O)CC(C)(O)C(C(=O)OCC)C1c1ccc(OC)c(OC)c1 (stereo unspecified)	2.24%		
O=C(Cn1c(=O)oc2ccccc21)N(Cc1ccccc1)C1CCS(=O)(=O)C1 (stereo unspecified)	4.33%		0.651 µM [rising, full curve]

Quoted from the listing.
For cell number change, CC(=O)c1c(C)[nH]c(C(=O)CN2C(=O)NC(C)(c3ccc(C)cc3)C2=O)c1C (stereo unspecified) shows 22.8%
For AC50 [1], COc1ccccc1CNC(=O)CS(=O)Cc1nc(-c2ccccc2C)oc1C (stereo unspecified) shows 1.64 µM [rising, partial curve]
